Data on one sequence can be found in article PMC12431856.

The chains behind the UniProt entries cited, without tags or fusion partners. Residues count along the entry.
UniProt C9JLR9, 81-172: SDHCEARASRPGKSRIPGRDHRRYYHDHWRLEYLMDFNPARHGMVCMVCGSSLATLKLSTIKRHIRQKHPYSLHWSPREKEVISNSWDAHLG

The data set deals with MBP-ZF1 (UniProt C9JLR9). Put plainly: fluorescence polarization. Conditions: FP: 25 mM citrate pH 5.6, 150 mM NaCl, 0.5 mM TCEP, 100 nM DNA, 15 nM-7.5 uM protein, 20 min, room temperature; recombinant protein; residues 81-172; protein details: N-terminal His6-MBP with TEV site; label: 5'-Cy5 on top strand. Background: Polarisation of emitted light reports the rotation of a fluorescent probe.

Construct, isoform or probe ends are uncertain for at least one entry. At least one verdict was read from the data and is not stated in words by the source.

As to “GATCCATGGCCCCATGGATG (double strand) [Cy5 PLAGL motif DNA]”, the binding result was “binds”.
